Like-named read-outs stand apart in the source and are kept apart here. No constants are given. Whether binding was seen depends on the method and setting. Some entries that bind do so weakly or less than the wild type.
B1: IbpA from Erwinia amylovora (protein, UniProt A0ABX7MII2 1-139)
chain: MRNFDLAPLYRSSIGFDRLINLLETSQNQGNNGGYPPYNVELVAENHYRITIAVAGFAESELEITSHDNLLSVRGSHPDEQQERTWLYQGIAERNFERKFQLAEHVHVRDARLENGLLYIDLERVVPEANQPRRIEIVK

Chains of the proteins cited; added tags and fusions are not shown.
UniProt A0A089Q2Q3: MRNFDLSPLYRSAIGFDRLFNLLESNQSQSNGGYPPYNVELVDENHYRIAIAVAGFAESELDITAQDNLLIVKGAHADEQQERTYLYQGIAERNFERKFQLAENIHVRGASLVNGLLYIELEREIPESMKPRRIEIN

What was measured:
[1] = target: firefly luciferase, thermally denatured (firefly) [luciferase: P08659]; test: co-sedimentation; both purified
[2] = target: firefly luciferase, thermally denatured (firefly) [luciferase: P08659]; test: co-sedimentation; both purified; remark: listed apart in the source
[3] = target: C-His-tagged luciferase, aggregated on the BLI sensor (firefly) [luciferase: P08659]; test: BLI; aggregated C-His-tagged luciferase immobilised on Ni-NTA sensors (BLItz); 5 μM sHsps (1.66 μM IbpAEc with 3.34 μM IbpBEc for IbpABEc) heat-activated at 44°C for 5 min; room temperature, buffer D (50 mM Tris-HCl pH 7.5, 150 mM KCl, 20 mM Mg acetate, 2 mM DTT); 10 min binding, 1 h dissociation in buffer; both purified

Molecule | binding [1] | binding [2] | binding [3]
IbpA from Cedecea neteri (from UniProt A0A089Q2Q3 1-137) | binds | – | –
B1 | – | binds | binds

From paper PMC6834283, “Duplicate divergence of two bacterial small heat shock proteins reduces the demand for Hsp70 in refolding of substrates” (PLoS Genetics, 2019)
